# According to patent US20100292436 (published 2010):
# Assay: general procedure: Fmoc solid-phase peptide synthesis; Wang resin; DIC or TBTU with HOBt; Fmoc-Arg(Pbf)-OH via pentafluorophenol ester (DIC, HATU)
# Details: whole synthesis
substance,measurement,setting,value
D-Phe-Pro-Arg-Pro-Gly-Gly-Gly-Gly-Asn-Gly-Asp-Phe-Glu-Glu-Ile-Pro-Glu-Glu-Tyr-Leu,crude purity (method not given),run 1,85%
same,crude purity (method not given),run 2,87%
